# In PubChem BioAssay AID2284371 (EPA ToxCast):
# Inconclusive means that the source gave no clear call. Such entries were picked first, then a sample of the others. A potency beside an inconclusive call is a rough fit, not a confirmed value. Activity calls are given as the source filed them. The calls were made as follows: active = hit-call score of the fitted dose curve at least 0.9, where 1 is the maximum; inconclusive = response in the unintended direction; inactive = score below 0.9.
# Test: ATG_M_61_EcoTox2: Attagene TRANS-FACTORIAL EcoTox-2 HepG2 Assay for M61 Transcription Factor (Internal Marker)
# Method: ATG_EcoTox2 is a cell-based, multiplexed assay created by modifying the existing Attagene TRANS-FACTORIAL system to include a panel of nuclear receptors from some or all the following species: human (Homo sapiens), african clawed frog (Xenopus laevis), rainbow trout (Oncorhynchus mykiss), japanese medaka (Oryzias latipes), and zebrafish (Danio rerio). The ECOTOX2-FACTORIAL format uses HepG2, a human liver cell line, with measurements taken at 24 hours after chemical dosing in a 24-well plate. ATG_M_61_EcoTox2 is one of 29 assay components calculated in the ATG_EcoTox2 assay. It is designed to make measurements of mRNA induction, a form of inducible reporter, as detected with fluorescence intensity signals by Reverse transcription polymerase chain reaction (RT-PCR) and Capillary electrophoresis technology.The assay endpoint ATG_M_61_EcoTox2 was analyzed in the positive analysis fitting direction relative to DMSO as the negative control and baseline of activity. Using a type of inducible reporter, measures of mRNA for gain-of-signal activity can be used to understand the background control at the transcription factor-level as they relate to the gene. Furthermore, this assay endpoint can be referred to as a secondary readout, because this assay has produced multiple assay endpoints where this one serves a background control function. […]
# Human liver HepG2 cells are transiently transfected with multiple reporter transcription units (MRTUs) in 6-well plates using FuGene 6 reagent (Roche; 3 ml FuGene/1 mg DNA). […] A major difference between the CIS and TRANS system is that in CIS activities of endogenous TFs are measured, whereas the TRANS assay evaluates changes in activities of exogenous, chimeric NR-Gal4 proteins. […] The fragments were purified using Qiaquick PCR columns (Qiagen), analyzed on an ABI 3130xL genetic analyzer (Applied Biosystems) with peak positions identified by using a set of X-rhodamine (ROX)-labeled MapMarker1000 molecular weight standards (BioVentures). […]
SMILES,AC50,outcome
C[C@@H]1C[C@H]2[C@@H]3CCC4=CC(=O)C=C[C@]4(C)[C@@]3(F)[C@@H](O)C[C@]2(C)[C@@]1(O)C(=O)COP(=O)(O)O,inconclusive: 50 µM,
Cc1ccc(C)c(OCCCC(C)(C)C(=O)O)c1,inconclusive: 0.00458 µM,
CC(C)(Oc1ccc(C2CC2(Cl)Cl)cc1)C(=O)O (stereo not drawn),,inactive
